Values of other authors, collected in US8183409B2, “High yield and rapid synthesis methods for producing metallo-organic salts” (Osteologix A/S, priority 2004, dated 2012).
Some of these results come from one statement about several compounds together. For at least one compound, name, drawing or mass did not settle the structure.

Conditions: range stated for the group of highly soluble inorganic salts; cited from earlier work

SMILES: [Cl-].[Cl-].[Sr+2] [strontium chloride]
- solubility in water: 225 to 800 mg/mL
